Laboratory results: PubChem BioAssay AID504808 (Drosophila RNAi Screening Center, 2011)

Test: 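Fly genes required to hold E2F transcription in check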 (primary screen)
Cells: Drosophila S2 cells
Reagent: long dsRNA against Drosophila genes
Read-out: 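Firefly luciferase driven by E2F sites, normalised to Renilla luciferase on the same minimal promoter, measured by plate reader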
Direction: E2F firefly: higher = more E2F reporter activity; Renilla normaliser: higher = more normaliser reporter signal
Call rule: 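Called active if the normalised E2F reporter went up by over 50%; the cutoff is arbitrary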
In all, the deposit lists about 21,000 reagents; this is a random part of those that have a named target and a result. Of all reagents, 18 (0.084%) got an active call. 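Raw counts without plate normalisation, one of two replicates; the ratio scores behind the calls were not deposited.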 Names joined by + are all predicted targets of the reagent. Not stated in the record: the amount of reagent, the time to read-out.

gene | DRSC id | E2F firefly, rep 1 | Renilla normaliser, rep 1 | Outcome
Ubqn | DRSC19581 | 1.64e5 | 6101 | inactive
CG4627 | DRSC06873 | 1.03e5 | 4108 | inactive
Spase25 | DRSC19776 | 8125 | 784 | inactive
CG15221 | DRSC19659 | 53497 | 3933 | inactive
CG13527 | DRSC04169 | 98298 | 4230 | inactive
Or65b | DRSC08809 | 1.21e5 | 4501 | inactive
CG5986 | DRSC15931 | 79897 | 3649 | inactive
CG31013 | DRSC16542 | 1.27e5 | 6453 | inactive
hiro | DRSC08564 | 90045 | 3437 | inactive
CG33648 | DRSC01387 | 1.51e5 | 5968 | inactive
CG34354 | DRSC13863 | 85646 | 2535 | inactive
CG34354 | DRSC14515 | 67881 | 3556 | inactive
CG34354 | DRSC14558 | 53355 | 3674 | inactive
CG34354 | DRSC15645 | 1.27e5 | 5506 | inactive
knk | DRSC15993 | 1.59e5 | 5963 | inactive
lov | DRSC04279 | 1.21e5 | 4717 | inactive
lov | DRSC04665 | 1.14e5 | 4917 | inactive
Pura | DRSC08891 | 1.30e5 | 4470 | inactive
Pura | DRSC10862 | 1.04e5 | 4357 | inactive
Pura | DRSC10864 | 1.06e5 | 4173 | inactive
Pura | DRSC10865 | 90376 | 4059 | inactive
Pura | DRSC10866 | 1.05e5 | 4103 | inactive
fun (retired record) | DRSC12300 | 68271 | 3452 | inactive
Cat | DRSC11110 | 1.68e5 | 8932 | inactive
CG3739 | DRSC15510 | 1.58e5 | 7340 | inactive
CG11699 | DRSC19419 | 1.39e5 | 5708 | inactive
CG4074 | DRSC11752 | 1.49e5 | 6115 | inactive
Doc1 | DRSC11146 | 1.08e5 | 3764 | inactive
CG6770 | DRSC02992 | 94355 | 4432 | inactive
CG42507 + Trl | DRSC09325 | 1.20e5 | 3956 | inactive
CG42507 + Trl | DRSC11308 | 52086 | 2874 | inactive
CG3815 | DRSC18324 | 7378 | 640 | inactive
snRNA:U1:95Cc | DRSC13640 | 88814 | 2712 | inactive
CG3337 | DRSC15478 | 44837 | 3830 | inactive
alpha-Est4 | DRSC12616 | 1.37e5 | 6776 | inactive
CG7164 | DRSC03018 | 1.41e5 | 4676 | inactive

Targets above whose gene name begins with L or l (2):
gene | DRSC id | E2F firefly, rep 1 | Renilla normaliser, rep 1 | Outcome
lov | DRSC04279 | 1.21e5 | 4717 | inactive
lov | DRSC04665 | 1.14e5 | 4917 | inactive

Continued:
gene | DRSC id | E2F firefly, rep 1 | Renilla normaliser, rep 1 | Outcome
CR31700 | DRSC03682 | 1.26e5 | 5047 | inactive
Ser8 | DRSC06891 | 91731 | 4310 | inactive
CG42795 | DRSC12772 | 86525 | 4448 | inactive
CG42795 | DRSC15533 | 1.28e5 | 7935 | inactive
Taf6 | DRSC11299 | 73390 | 3742 | inactive
CG15260 | DRSC01977 | 1.07e5 | 4382 | inactive
Vha36-1 | DRSC07098 | 66756 | 3339 | inactive
Ank | DRSC17127 | 1932 | 872 | inactive
CG12645 | DRSC17851 | 1.36e5 | 6453 | inactive
twr | DRSC12491 | 1.37e5 | 7166 | inactive
Poxm | DRSC16793 | 1.46e5 | 6874 | inactive
CG14131 | DRSC10135 | 1.07e5 | 7148 | inactive
Fatp2 | DRSC03971 | 1.29e5 | 5274 | inactive
Fatp2 | DRSC04178 | 98778 | 4597 | inactive
Fatp2 | DRSC04330 | 97944 | 4134 | inactive
Pgant6 | DRSC08552 | 79937 | 3407 | inactive
CG31515 | DRSC13610 | 90059 | 2400 | inactive
CG33223 | DRSC17572 | 75168 | 2579 | inactive
CG16775 | DRSC10225 | 1.64e5 | 7585 | inactive
CG9782 | DRSC19145 | 82710 | 3074 | inactive
CG9782 | DRSC20209 | 1.52e5 | 5998 | inactive
CG14298 | DRSC14777 | 1.15e5 | 8257 | inactive
RhoGAPp190 | DRSC20097 | 1.57e5 | 5563 | inactive
RhoGAPp190 | DRSC20099 | 1.44e5 | 5881 | inactive
qkr54B | DRSC07670 | 1.33e5 | 4990 | inactive
crb | DRSC16927 | 77475 | 4058 | inactive
CG14839 | DRSC14963 | 1.09e5 | 5313 | inactive
CG13711 | DRSC08320 | 85623 | 4043 | inactive
AP-1-2beta | DRSC19336 | 1.28e5 | 7301 | inactive
klar | DRSC08718 | 84568 | 3637 | inactive
b | DRSC03487 | 96793 | 3897 | inactive
CNT1 | DRSC06082 | 1.50e5 | 5109 | inactive
otk | DRSC07658 | 98480 | 4415 | inactive
Idgf2 | DRSC03350 | 81122 | 4027 | inactive
Edc3 | DRSC10620 | 66870 | 3945 | inactive
CG18449 | DRSC06754 | 1.23e5 | 4550 | inactive
CG14441 | DRSC17934 | 76946 | 4371 | inactive
Csk | DRSC12861 | 89568 | 2703 | inactive
Csk | DRSC15223 | 55129 | 2833 | inactive
CG9213 | DRSC20170 | 8940 | 812 | inactive
Tim17b1 | DRSC12179 | 1.16e5 | 5267 | inactive
CG30026 | DRSC05276 | 1.26e5 | 5563 | inactive
CG6654 | DRSC16084 | 75154 | 3274 | inactive
CG8036 | DRSC16366 | 1.32e5 | 6640 | inactive
CG4619 | DRSC02764 | 87319 | 4006 | inactive
Osi9 | DRSC12278 | 52559 | 3695 | inactive
CG14142 | DRSC10145 | 1.14e5 | 6534 | inactive
trus | DRSC15772 | 1.51e5 | 7632 | inactive
Hacl | DRSC06061 | 79560 | 3256 | inactive
cue | DRSC08248 | 91297 | 3631 | inactive
CG15547 | DRSC15085 | 1.23e5 | 6802 | inactive
CG13858 (retired record) | DRSC14708 | 1.39e5 | 8255 | inactive
CG13858 (retired record) | DRSC14709 | 1.52e5 | 6889 | inactive
CG13858 (retired record) | DRSC14710 | 1.47e5 | 7001 | inactive
CG13858 (retired record) | DRSC14711 | 1.32e5 | 7586 | inactive
CG7024 | DRSC18414 | 1.23e5 | 6381 | inactive
meng | DRSC02134 | 1.70e5 | 6077 | inactive
CG32277 | DRSC08196 | 1.07e5 | 4144 | inactive
osp | DRSC01409 | 1.35e5 | 5157 | inactive
osp | DRSC03585 | 68708 | 3496 | inactive
Nin | DRSC02007 | 92246 | 3663 | inactive
Cyp4p1 | DRSC07372 | 1.62e5 | 5600 | inactive
Tbca | DRSC15395 | 1994 | 928 | inactive
CG42568 + DnaJ-60 | DRSC04207 | 1.11e5 | 4750 | inactive
CG42568 + DnaJ-60 | DRSC04611 | 76783 | 3474 | inactive
fd96Ca | DRSC16946 | 99241 | 5573 | inactive
axed | DRSC08833 | 1.33e5 | 4652 | inactive
axed | DRSC10982 | 98377 | 3639 | inactive
Zn72D | DRSC11318 | 86235 | 4229 | inactive
CG5934 | DRSC15922 | 1.13e5 | 6809 | inactive
CG5281 | DRSC15761 | 1.40e5 | 6183 | inactive
